Reference: publication PMC10298087
Numbering of substitutions follows the chain as printed. No constants are given. Whether binding was seen depends on the method and setting. Binding seen in cells or lysates may run through a third protein. A result given as binding can be weak or reduced; the word gives no strength. Tags and fused reporters may be left off the sequences shown.

Legend:
Test in all cases: co-IP; FLAG-tagged mouse Trim28 (WT or mutants) and Gal4^DBD-KRAB in TRIM28-knockout K562 cells; IP with anti-FLAG, Western blot with anti-FLAG and anti-Gal4; whole-cell extract buffer with 300 mM NaCl, 0.1% Triton X-100, 4 °C
[1] = biological target: T1, FLAG-tagged mouse Trim28-K255Q (mouse) (UniProt Q62318)
T1 sequence: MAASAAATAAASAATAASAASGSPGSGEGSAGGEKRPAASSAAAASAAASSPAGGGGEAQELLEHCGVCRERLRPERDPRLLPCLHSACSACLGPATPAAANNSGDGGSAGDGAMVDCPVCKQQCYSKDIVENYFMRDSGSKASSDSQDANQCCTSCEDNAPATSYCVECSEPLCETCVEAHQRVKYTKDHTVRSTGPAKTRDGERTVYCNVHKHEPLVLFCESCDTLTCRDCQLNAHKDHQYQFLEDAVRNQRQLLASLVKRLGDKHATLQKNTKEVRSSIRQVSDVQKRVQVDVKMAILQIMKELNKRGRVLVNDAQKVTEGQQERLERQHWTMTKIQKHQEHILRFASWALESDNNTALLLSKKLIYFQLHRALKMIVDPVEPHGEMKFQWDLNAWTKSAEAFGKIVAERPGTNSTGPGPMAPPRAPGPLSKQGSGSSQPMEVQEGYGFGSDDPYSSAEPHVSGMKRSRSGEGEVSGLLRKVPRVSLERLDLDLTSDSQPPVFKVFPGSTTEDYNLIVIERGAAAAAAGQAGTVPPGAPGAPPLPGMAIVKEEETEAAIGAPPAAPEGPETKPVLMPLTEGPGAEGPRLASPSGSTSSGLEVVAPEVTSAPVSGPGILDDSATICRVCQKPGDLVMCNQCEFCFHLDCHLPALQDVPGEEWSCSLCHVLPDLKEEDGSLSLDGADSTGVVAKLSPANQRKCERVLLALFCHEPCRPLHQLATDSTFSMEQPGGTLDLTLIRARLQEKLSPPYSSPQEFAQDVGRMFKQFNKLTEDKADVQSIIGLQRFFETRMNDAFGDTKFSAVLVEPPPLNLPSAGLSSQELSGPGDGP

[2] = biological target: T2, FLAG-tagged mouse Trim28-K255R (mouse) (UniProt Q62318)
T2 sequence: T1 sequence with Q255R

[3] = biological target: T3, FLAG-tagged mouse Trim28-K305Q (mouse) (UniProt Q62318)
T3 sequence: T1 sequence with Q255K, K305Q

Measured: binding

Gal4 DNA-binding domain (Gal4^DBD)-KRAB (domain or fragment)
binds: all assays above
